No constants are given. Whether binding was seen depends on the method and setting. In cells and extracts the contact can be indirect. Some results given as binding are weak or reduced against the parent protein; the word gives no strength. For some of these results: Tags and fused reporters may be left off the sequences shown.
Assays:
[1] = biological target: C-terminally EGFP-tagged human CDK5RAP3 (C53) (human) (UniProt Q96JB5); assay: co-IP; extracts of U2OS cells expressing EGFP-UFL1, C53-EGFP or EGFP alone; precipitated with Ab to GFP or, reciprocally, Ab to γ-tubulin; immunoblot
[2] = biological target: N-terminally EGFP-tagged human UFL1 (human) (UniProt O94874); assay: as above
[3] = biological target: N-terminally GST-tagged full-length UFL1 (aa 1-794) (human) (UniProt O94874); assay: pull-down; immobilised GST-tagged UFL1, C53 or γ-tubulin, or GST alone, incubated with whole-cell extracts (1% NP-40 in HEPES buffer); immunoblot; only the target purified
[4] = biological target: N-terminally GST-tagged full-length human CDK5RAP3 (C53) (human) (UniProt Q96JB5); assay: as above
[5] = biological target: CDK5 regulatory subunit-associated protein 3 (C53), endogenous human (human (endogenous in U2OS and T98G)) (UniProt Q96JB5); assay: co-IP; extracts from the crude membranous fraction (P2) of U2OS cells; protein A beads with Abs to UFL1 (301-389 or 438-793), C53, γ-tubulin (TU-31) or GCP2; immunoblot
[6] = biological target: E3 UFM1-protein ligase 1 (UFL1), endogenous human (human (endogenous in U2OS and T98G)) (UniProt O94874); assay: as above

Sequences of proteins named here, by UniProt entry; tags and fusion partners are left off. A change or cut given only in a name is not applied to a line headed by its entry.
UniProt O94874: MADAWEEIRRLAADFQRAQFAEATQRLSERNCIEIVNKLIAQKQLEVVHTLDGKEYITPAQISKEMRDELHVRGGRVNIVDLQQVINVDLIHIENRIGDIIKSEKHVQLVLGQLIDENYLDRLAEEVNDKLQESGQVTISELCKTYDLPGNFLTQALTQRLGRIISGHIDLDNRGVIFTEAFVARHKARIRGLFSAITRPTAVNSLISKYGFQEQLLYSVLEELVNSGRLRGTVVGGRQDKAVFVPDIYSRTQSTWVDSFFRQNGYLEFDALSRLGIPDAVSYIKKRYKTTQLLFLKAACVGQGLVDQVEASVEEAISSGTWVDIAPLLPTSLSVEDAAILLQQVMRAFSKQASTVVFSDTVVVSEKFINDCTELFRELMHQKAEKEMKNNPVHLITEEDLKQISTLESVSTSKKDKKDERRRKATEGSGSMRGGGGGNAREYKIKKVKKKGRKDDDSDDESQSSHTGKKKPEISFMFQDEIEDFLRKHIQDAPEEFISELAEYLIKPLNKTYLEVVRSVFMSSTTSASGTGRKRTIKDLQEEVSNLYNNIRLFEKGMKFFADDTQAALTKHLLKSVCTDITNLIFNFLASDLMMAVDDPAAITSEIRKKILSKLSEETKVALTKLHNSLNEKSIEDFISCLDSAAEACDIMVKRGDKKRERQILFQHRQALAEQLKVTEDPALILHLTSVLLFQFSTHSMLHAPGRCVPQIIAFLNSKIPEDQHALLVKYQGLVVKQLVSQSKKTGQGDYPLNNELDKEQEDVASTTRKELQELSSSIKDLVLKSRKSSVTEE
UniProt Q9BSJ2: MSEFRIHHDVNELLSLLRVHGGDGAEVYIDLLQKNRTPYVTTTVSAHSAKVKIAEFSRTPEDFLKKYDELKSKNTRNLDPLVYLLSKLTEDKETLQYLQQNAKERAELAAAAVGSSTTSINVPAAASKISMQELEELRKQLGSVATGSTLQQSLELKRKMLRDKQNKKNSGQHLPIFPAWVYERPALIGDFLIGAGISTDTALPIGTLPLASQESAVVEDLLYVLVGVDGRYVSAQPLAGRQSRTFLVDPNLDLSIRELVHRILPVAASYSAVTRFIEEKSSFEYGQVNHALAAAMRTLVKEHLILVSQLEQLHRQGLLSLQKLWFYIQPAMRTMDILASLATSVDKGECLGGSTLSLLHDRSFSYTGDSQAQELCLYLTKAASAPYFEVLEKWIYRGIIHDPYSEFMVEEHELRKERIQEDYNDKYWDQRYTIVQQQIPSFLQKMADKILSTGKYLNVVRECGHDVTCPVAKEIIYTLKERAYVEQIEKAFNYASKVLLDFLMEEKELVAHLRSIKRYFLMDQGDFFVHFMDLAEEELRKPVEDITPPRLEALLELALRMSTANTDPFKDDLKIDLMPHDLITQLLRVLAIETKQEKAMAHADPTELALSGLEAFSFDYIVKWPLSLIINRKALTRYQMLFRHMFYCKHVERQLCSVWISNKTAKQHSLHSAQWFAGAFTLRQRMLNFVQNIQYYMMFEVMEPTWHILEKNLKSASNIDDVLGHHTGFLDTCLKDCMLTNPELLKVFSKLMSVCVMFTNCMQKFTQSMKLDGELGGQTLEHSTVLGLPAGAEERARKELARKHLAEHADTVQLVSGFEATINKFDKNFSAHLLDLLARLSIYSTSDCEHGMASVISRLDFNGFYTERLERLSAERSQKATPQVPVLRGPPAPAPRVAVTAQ
UniProt Q9UGJ1: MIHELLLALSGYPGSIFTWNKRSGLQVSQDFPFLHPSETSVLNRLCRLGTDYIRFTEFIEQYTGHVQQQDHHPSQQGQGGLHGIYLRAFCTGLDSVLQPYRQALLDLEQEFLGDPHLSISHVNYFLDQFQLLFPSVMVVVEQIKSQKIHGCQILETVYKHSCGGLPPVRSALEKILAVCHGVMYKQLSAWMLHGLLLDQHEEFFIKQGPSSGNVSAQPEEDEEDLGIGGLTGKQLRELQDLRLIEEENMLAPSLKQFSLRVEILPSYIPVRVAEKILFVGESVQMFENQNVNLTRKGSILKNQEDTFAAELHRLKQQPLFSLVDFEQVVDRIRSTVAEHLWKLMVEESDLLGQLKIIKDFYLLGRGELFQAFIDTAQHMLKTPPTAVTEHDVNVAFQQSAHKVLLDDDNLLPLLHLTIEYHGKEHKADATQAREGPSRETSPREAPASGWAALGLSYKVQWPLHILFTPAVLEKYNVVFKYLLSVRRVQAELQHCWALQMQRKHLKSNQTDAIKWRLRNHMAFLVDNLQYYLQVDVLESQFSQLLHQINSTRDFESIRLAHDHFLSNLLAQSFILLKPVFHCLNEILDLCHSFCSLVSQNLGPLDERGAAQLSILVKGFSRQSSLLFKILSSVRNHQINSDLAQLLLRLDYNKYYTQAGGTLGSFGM
UniProt Q96RT7: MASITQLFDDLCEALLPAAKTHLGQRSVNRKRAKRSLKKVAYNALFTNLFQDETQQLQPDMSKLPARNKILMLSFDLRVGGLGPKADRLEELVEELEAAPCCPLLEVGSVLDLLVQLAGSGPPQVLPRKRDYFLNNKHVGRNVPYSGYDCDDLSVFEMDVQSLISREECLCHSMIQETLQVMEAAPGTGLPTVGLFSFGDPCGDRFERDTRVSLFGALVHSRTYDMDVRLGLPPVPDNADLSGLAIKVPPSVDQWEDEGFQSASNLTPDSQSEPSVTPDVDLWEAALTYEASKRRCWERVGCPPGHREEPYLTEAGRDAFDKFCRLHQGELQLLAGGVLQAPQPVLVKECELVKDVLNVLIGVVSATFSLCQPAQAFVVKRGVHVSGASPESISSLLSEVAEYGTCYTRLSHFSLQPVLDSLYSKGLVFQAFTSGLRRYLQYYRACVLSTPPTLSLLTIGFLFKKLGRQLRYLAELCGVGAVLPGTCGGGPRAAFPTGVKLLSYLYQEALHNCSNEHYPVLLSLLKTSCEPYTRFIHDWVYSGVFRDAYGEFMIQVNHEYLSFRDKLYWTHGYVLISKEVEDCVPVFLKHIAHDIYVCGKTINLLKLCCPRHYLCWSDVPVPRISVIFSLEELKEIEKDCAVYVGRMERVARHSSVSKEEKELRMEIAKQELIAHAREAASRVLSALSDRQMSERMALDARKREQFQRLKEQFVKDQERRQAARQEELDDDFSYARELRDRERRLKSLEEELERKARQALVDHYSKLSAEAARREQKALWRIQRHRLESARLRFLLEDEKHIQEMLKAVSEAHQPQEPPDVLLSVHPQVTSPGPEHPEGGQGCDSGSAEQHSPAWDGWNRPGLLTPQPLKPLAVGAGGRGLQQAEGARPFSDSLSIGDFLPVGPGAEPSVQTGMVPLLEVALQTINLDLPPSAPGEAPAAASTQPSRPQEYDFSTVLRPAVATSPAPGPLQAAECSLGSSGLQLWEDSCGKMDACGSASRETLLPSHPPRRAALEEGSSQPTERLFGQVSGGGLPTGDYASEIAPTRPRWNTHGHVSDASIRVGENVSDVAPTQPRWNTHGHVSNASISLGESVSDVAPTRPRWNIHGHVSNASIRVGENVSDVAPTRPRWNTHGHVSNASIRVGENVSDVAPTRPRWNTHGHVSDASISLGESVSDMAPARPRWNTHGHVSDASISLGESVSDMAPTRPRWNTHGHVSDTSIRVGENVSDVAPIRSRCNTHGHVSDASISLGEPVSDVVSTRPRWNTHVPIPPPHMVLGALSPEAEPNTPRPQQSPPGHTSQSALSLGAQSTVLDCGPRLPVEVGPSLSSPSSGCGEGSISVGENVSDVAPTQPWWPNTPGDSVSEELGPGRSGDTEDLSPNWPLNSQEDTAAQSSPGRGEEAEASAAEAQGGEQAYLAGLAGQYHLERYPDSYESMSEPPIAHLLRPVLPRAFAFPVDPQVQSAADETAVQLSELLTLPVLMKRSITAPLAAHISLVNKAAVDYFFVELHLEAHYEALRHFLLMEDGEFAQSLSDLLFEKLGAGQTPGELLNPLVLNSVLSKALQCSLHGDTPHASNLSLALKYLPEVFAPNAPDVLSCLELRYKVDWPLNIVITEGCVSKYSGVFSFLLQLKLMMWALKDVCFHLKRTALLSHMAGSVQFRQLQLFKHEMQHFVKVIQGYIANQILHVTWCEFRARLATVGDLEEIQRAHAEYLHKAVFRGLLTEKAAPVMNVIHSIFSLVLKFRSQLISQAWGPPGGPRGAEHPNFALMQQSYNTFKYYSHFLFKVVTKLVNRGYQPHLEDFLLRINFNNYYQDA

binding [1] | binding [2] | binding [3] | binding [4] | binding [5] | binding [6] | Substance
binds | binds | binds | binds | – | – | γ-tubulin complex protein 2 (GCP2), endogenous human (from UniProt Q9BSJ2 1-902)
binds | binds | – | – | binds | binds | γ-tubulin complex protein 4 (GCP4), endogenous human (from UniProt Q9UGJ1 1-667)
binds | binds | – | – | – | – | γ-tubulin complex protein 6 (GCP6), endogenous human (from UniProt Q96RT7 1-1819)
